## Primary screen of a compound library

Chains of the proteins cited; added tags and fusions are not shown.
UniProt E9BF75, entry or part of it: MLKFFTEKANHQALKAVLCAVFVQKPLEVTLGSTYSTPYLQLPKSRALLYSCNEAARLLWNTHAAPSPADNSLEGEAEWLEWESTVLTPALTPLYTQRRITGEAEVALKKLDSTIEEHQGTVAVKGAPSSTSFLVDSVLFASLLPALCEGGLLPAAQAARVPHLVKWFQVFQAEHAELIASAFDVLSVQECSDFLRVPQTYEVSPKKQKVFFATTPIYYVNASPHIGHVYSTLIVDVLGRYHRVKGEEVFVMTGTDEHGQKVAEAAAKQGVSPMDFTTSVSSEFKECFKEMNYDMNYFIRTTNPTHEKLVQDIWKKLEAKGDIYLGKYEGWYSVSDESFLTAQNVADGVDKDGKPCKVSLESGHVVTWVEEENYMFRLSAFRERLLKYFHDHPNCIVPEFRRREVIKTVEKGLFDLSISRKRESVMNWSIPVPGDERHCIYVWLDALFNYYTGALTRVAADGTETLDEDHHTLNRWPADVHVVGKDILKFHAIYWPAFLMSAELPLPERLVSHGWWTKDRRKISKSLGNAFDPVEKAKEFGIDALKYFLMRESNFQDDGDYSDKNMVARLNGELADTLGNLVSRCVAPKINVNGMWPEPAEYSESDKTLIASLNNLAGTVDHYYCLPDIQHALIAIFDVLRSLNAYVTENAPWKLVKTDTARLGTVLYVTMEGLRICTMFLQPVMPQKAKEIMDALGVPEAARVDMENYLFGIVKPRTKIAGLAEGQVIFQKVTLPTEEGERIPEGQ

Data taken from ChEMBL document CHEMBL3988442, “University of Dundee, Small-Polar-MMV Screening Library” (2021).

Mtb heat-shock: 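Assay on Mycobacterium tuberculosis, filed only as a heat shock assay from Cornell; the read-out is not stated. The concentration is filed as 10 mM, unlikely as a test dose, so the dose is not known. Direction is inferred from retests: higher values go with stronger inhibition. Of about 69,000 compounds tested this way, about 930 (1.4%) reached 50% or more in at least one test.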
LdMetRS: 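Primary screen of methionyl-tRNA synthetase; the read-out is not stated. Target: Methionyl-tRNA synthetase (putative), Leishmania donovani (UniProt E9BF75). The test concentration is not given. Values are per cent inhibition. Size under these conditions: about 68,000 compounds, about 24 of them at 50% or above in at least one test.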

Results are percentages, as filed.
How 0% and 100% were set is not recorded. Most values in the screen are low, and negative values occur.
This is an unselected part of the compounds tested.
A dash means the value is not listed here; it may have been measured.

SMILES,Mtb heat-shock,LdMetRS
Cc1nn(CC(=O)N2CCCN(c3cccnn3)CC2)c(C)c1Cl,3.101%,1.044%
Cc1cccc(CN(C(=O)NCc2ccccn2)C2CC2)c1,3.214%,11.73%
OCCN1CCOC2(CCCN(c3ncccn3)C2)C1 (configuration not stated),-1.264%,11.28%
Cc1cc(Br)ccc1CNC(=O)C1(O)CCSCC1,-16.7%,8.527%
Cc1ccc(C(=O)N2C[C@@H]3OCCN(C)[C@@H]3C2)cn1,-,1.99%
CCN(CC1CN(Cc2c(C)noc2C)CCO1)c1cccnn1 (configuration not stated),-19.78%,-0.5305%
COCc1cnc2n1CCN(C(=O)C1=CCCCC1)C2C (configuration not stated),-19.76%,2.075%
CC(=O)c1cccc(NC(=O)Cn2cnc(-c3cccs3)cc2=O)c1,15.75%,12.23%
CC(=O)N1CCN(Cc2ccsc2)CC2(CC(=O)N(C)C2)C1 (configuration not stated),-,15.71%
CCN(c1ccsc1C(=O)N1CCSCC1)S(=O)(=O)c1ccc(Cl)cc1,12.57%,13.24%
CC(C)CN1CC(c2nc(-c3cccc(F)c3)c[nH]2)CC1=O (configuration not stated),-2.263%,-0.7792%
Cc1ccc(C(=O)NS(=O)(=O)Cc2ccc(F)cc2)cc1S(C)(=O)=O,-7.777%,14.57%
O=C1CN(c2ccc(CNC(=O)Nc3nccs3)cc2)CCN1,10.59%,16.71%
Cc1ccc(C(=O)N2CCC(n3cc(CN)nn3)CC2)cc1F,-9.464%,14.78%
CC1CN(C(=O)NCCCn2cncn2)CCO1 (configuration not stated),3.899%,20.41%
Cc1cc(NC(=O)CN2CCCC2c2noc(C3CC3)n2)n(C)n1 (configuration not stated),-8.177%,11.27%
CN(C)C(=O)[C@@H]1CC[C@@H]2[C@@H](CCN2Cc2nccs2)O1,-,9.936%
O=C(O)C(F)(F)F.O=C1CC[C@]2(CC[C@@H](NCc3ccsc3)CC2)N1Cc1ccccc1,-7.125%,-
CN1CCN(Cc2cccnc2)C(=O)C12CCN(CC1CCOC1)CC2 (configuration not stated),-,17.37%
Cc1cnc(C(=O)N2CCCN(Cc3csc(C)n3)CC2)cn1,7.693%,14.5%
CCc1nc(CN(C)CC2CCN(CC(C)O)CC2)no1 (configuration not stated),-15.45%,7.609%
O=C(O)C(F)(F)F.O=C(O)C(F)(F)F.[H][C@@]12CCN(C(=O)CC(C)C)CC[C@]1(C(=O)Nc1cccnc1)CCN2C,32.37%,-
CCN(Cc1nc2c(cnn2C)c(=O)[nH]1)c1ccc(F)cc1,0.9479%,22.64%
CCOc1cccc2c1OCC(C(=O)NS(=O)(=O)c1ccc(Br)s1)=C2,-23.42%,-2.279%
COc1nc(C)c(C(=O)N2CCc3[nH]nc(C4CCCC4)c3C2)s1,5.222%,-1.781%
Cc1cc(C)c(C#N)c(N2CCC(Cc3ccccc3)CC2)n1,3.547%,18.01%
Cc1ccccc1N1CC2(CCN(Cc3nccn3C)C2)CC1=O (configuration not stated),-,16.48%
c1csc(CN2CCC3(CCCN3CC3CC3)CC2)n1,-,4.498%
Cn1c(N2CCOCC2)nc2cc(C(=O)N3CCCOCC3)ccc21,-23.59%,9.348%
CNC(=O)c1cccc(CNC(=O)C2CC(=O)N(CCN(C)C)C2)c1 (configuration not stated),1.243%,17.56%
Cc1ccc(-n2nnc(C(=O)NC(C)C)c2C2CC2)cc1,4.591%,11.45%
c1cncc(CN2CCc3c(CNc4nccs4)n[nH]c3C2)c1,-27.87%,7.781%
Cc1occc1CNc1ncccc1S(N)(=O)=O,7.284%,12.15%
Cc1nc2cc(OCc3nc(C(=O)NC(CO)CO)co3)ccc2s1,-5.034%,8.696%
[H][C@]12CC[C@@]3(N=C(CC)NC3=O)[C@@]1([H])CN(C(=O)NCc1ccccc1)C2,5.54%,-
Cc1ncc(CN2CCOC(c3ccc(-c4ccccc4F)cn3)C2)s1 (configuration not stated),-6.317%,1.286%
N#Cc1ccnc(N2CCN(CC(O)c3ccc(F)cc3)CC2)c1 (configuration not stated),-6.331%,19.1%
CC(C)N1CCc2c(C#N)c(NCc3ccco3)n3cnnc3c2C1,27.72%,11.97%
Cc1cccc(COc2ccc(C(C)NS(N)(=O)=O)cc2)c1 (configuration not stated),-14.87%,17.78%
CCOc1cc(F)ccc1NC1CCN(CC(F)(F)F)C1=O (configuration not stated),21.74%,11.45%
Cc1oncc1C(=O)N1CC2CC1(C(=O)N1CCCC1)C2,-10.06%,0%
Cc1ccc(CN(C)CC2(O)CCCN(C)C2)o1 (configuration not stated),5.776%,6.316%
COCCN(CC(N)=O)CC1CCCN(C2Cc3ccccc3C2)C1 (configuration not stated),-51.3%,2.256%
CN(C)S(=O)(=O)N1CCN(c2cc(-n3cccc3)ncn2)CC1,7.214%,13.19%
COc1ccc(C(C)NCCC(N)=O)cc1F (configuration not stated),20.99%,7.619%
CC(C)NC(=O)C(C)S(=O)(=O)c1cc2c(cc1Cl)OCCO2 (configuration not stated),-26.7%,20.39%
CC(C)CN1CC(C(=O)NCCc2ccc(OC(F)F)cc2)CC1=O (configuration not stated),-8.586%,-0.838%
CCSCCC(=O)Nc1ncn(Cc2ccccc2)n1,-49.2%,15.84%
CN(CC(=O)NC(Cc1ccsc1)c1cccnc1)Cc1ccccn1.Cl (configuration not stated),-24.9%,-
COc1cc(N2CCC3(CCN(Cc4csc(C)n4)C3)CC2)ncn1.O=C(O)C(F)(F)F,-1.76%,-
CCc1nnc2n1CCN(C(C(=O)NC1CC1)c1ccccc1)C2 (configuration not stated),15.78%,17.71%
Cc1ccc2nc(C(=O)N3CCCC[C@]4(C)NC(=O)CCC[C@H]34)cn2c1,-,12.86%
CN1CCN(C2CCN(CCCOc3ccc(F)cc3)CC2)C1=O,-17.06%,0.8547%
Cc1ccc(CNC(=O)CCNS(C)(=O)=O)cc1,1.206%,8.883%
[H][C@@]12CS(=O)(=O)C[C@]1([H])N(C(=O)c1cccs1)CCN2Cc1[nH]cnc1C,3.688%,-
O=C(N1CCCC1)C12CC(CN1Cc1nccs1)C2,42.03%,13.41%
CC(=O)N1CCC(NC(=O)N2CCCC2c2ccsc2)CC1 (configuration not stated),3.394%,2.899%
c1ccc(CC2(CNCc3ncc[nH]3)CCC2)cc1,-16.75%,5.801%
CCOCCNS(=O)(=O)c1ccc2c3c1CCCN3C(=O)CO2,-8.684%,2.484%
CCN1CCOCC2(CCCN(C(=O)c3conc3C)C2)C1.O=C(O)C(F)(F)F (configuration not stated),-3.777%,-
O=C(c1ccc[nH]1)N1CCCn2cnc(COCC3CC3)c2C1,2.916%,7.692%
Cc1cnn(CCNCC(O)COc2ccc(C#N)cc2)c1 (configuration not stated),-0.4429%,9.859%
CCn1cncc1CNc1ccc(-c2nc(CC(C)C)no2)cn1,43.73%,13.31%
O=C(O)c1cc(S(=O)(=O)Nc2ccc(F)cc2F)cc2c1OCCO2,-21.71%,13.13%
[H][C@@]12CCCO[C@]1([H])[C@@H](N(C)Cc1cncnc1)CN2C(=O)c1ccc[nH]1,23.94%,-
CC(Nc1cccc(CN2CCOC2=O)c1)C(=O)N1CCNC1=O (configuration not stated),10.32%,7.975%
CCc1n[nH]c(C2CN(Cc3nc(C4CC4)no3)CCO2)n1 (configuration not stated),24.75%,4.467%
CCn1nc(C)c(CN(CCOC)Cc2ccccn2)c1C,-2.912%,8.873%
Cc1ncoc1C(=O)N1CCc2[nH]nc(-c3ccc4c(c3)OCO4)c2C1,3.129%,7.904%
CCN1Cc2cc(F)ccc2N(C(=O)C2CCC2)CCC1=O,57.03%,5.205%
CNC(=O)Cc1ccc(-n2ccnc2-c2ccc(C(=O)O)s2)cc1,-9.514%,5.882%
CCn1cc(NC(=O)NCC(c2cccs2)N(C)C)cn1 (configuration not stated),7.811%,20.41%
c1cnnc(N2CCCC(NCc3ccc(-n4ccnc4)cc3)C2)c1 (configuration not stated),2.609%,11.81%

Some entries from above, unchanged:

SMILES,Mtb heat-shock,LdMetRS
N#Cc1ccnc(N2CCN(CC(O)c3ccc(F)cc3)CC2)c1 (configuration not stated),-6.331%,19.1%
Cc1cccc(COc2ccc(C(C)NS(N)(=O)=O)cc2)c1 (configuration not stated),-14.87%,17.78%
CC(C)CN1CC(C(=O)NCCc2ccc(OC(F)F)cc2)CC1=O (configuration not stated),-8.586%,-0.838%
Cc1nn(CC(=O)N2CCCN(c3cccnn3)CC2)c(C)c1Cl,3.101%,1.044%
COc1ccc(C(C)NCCC(N)=O)cc1F (configuration not stated),20.99%,7.619%
CC(=O)c1cccc(NC(=O)Cn2cnc(-c3cccs3)cc2=O)c1,15.75%,12.23%